According to PMC8069728:
The exact form of at least one protein or probe is not confirmed.

Tested on: CA72-4 (cancer antigen 72-4, high-molecular-weight glycosylated tumor protein)
Test: electrochemical nanopore membrane sensor (current), XPS
Conditions: aptamer on membrane, dose-dependent, detection range 4-14 U/mL, LOD 4 U/mL (no Kd); 5' Thiol Modifier C6 S-S (TCEP-reduced), immobilized on MCH-modified gold-coated PC membrane; Aptamer immobilized (10 uM, 50 uL, 37 C, 60 min) on MCH/gold-coated PC membrane, washed with 1X PBS pH 7.4; commercial protein

## CGGGGGUGCGAAGGGGGGCAGAGGUUUGACGCGAGA [CA72-4 Oligo RNA aptamer (36 nt)]
  binding result: binds
